Data from PubChem BioAssay AID1259415 (National Center for Advancing Translational Sciences (NCATS), 2018).
“And” between values parts separate entries of the source, which are not always exact repeats. Equal entries are not always repeated. The whole screen tested about 410,000 compounds, of which about 18,000 (4.4%) were called active. Inconclusive means that the source gave no clear call. Such entries were picked first, then a sample of the others. No stated cut-off is given here; in the data, active means activity change below about -60%; inconclusive means no clear call, values can overlap the other calls; inactive means above about -39%.

assay: qHTS Assay for inhibitors of the human cytomegalovirus (HCMV); settings: HFF cells, HCMV-luciferase reporter, 72 h; at 57.5 µM; hits give low values
How it was run: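 Compounds were evaluated in HFFs infected with an HCMV luciferase reporter virus (MOI 1 PFU/cell). Luciferase in lysates collected 72 h post infection served as the replication measure.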
On the % scale 0 is the no-effect control and ±100 the full control effect.

Structure (SMILES) | activity change, negative = inhibition
CSc1cc(-c2ccc(Cl)cc2)c(C(=O)N2CCCC2)s1 | inconclusive: -52.3%
O=C(O)c1ccc(NC2=C(Cl)C(=O)c3ccccc3C2=O)cc1 | inconclusive: -41.8%
Cc1ccc(NC(=O)CSc2nnc(-c3cc4occc4n3C)n2-c2ccccc2C)c(Cl)c1 | inactive: -25.2%
COC(=O)/C(=N\OCc1ccc(C#N)cc1)c1c(C)nn(C)c1C | active: -100%
COc1ccc(S(N)(=O)=O)cc1C(=O)N1CCCC1 | inconclusive: -41.7%
Cc1ccc(C)c(Cn2c3ccccc3c3cnn(CC(=O)NC4CCC(C)CC4)c(=O)c32)c1 (stereo unspecified) | inactive: -12%
COc1ccc(Cc2noc(CN(C)Cc3ccc(-n4cccn4)cc3)n2)cc1OC | inactive: -20%
COc1ccc(N(CC(=O)NCc2cccs2)S(=O)(=O)c2ccc(C(C)=O)cc2)cc1 | inconclusive: -45.7%
COc1ccc(Cc2noc(CN3CCN(C4CCc5ccccc5C4)CC3)n2)cc1OC (stereo unspecified) | inactive: -35.9%
O=C(O)C1Nc2c(O)cc(Cl)c([N+](=O)[O-])c2C2C=CCC12 (stereo unspecified) | inconclusive: -44.5%
Nc1nnc(SCC(=O)NC2CCCCCC2)s1 | inactive: -22.1%
C=CCc1ccccc1OCC(O)CN1C(=O)c2ccccc2C1=O (stereo unspecified) | inactive: -1.09%
COc1ccc(C(C#N)=C2C=CC(=NO)c3ccccc32)cc1 | active: -90.8%
Cc1nn(-c2ccc(F)cc2)c(-n2cccc2)c1C(=O)N1CCN(c2ccccc2)CC1 | inconclusive: -57.3%
COc1ccccc1CNC(=O)CCc1nnc2ccc(NCCCN3CCCC3=O)nn12 | inconclusive: -47.3%
COc1ccc(-c2oc3cc(O)c(OC)c(O)c3c(=O)c2OC)cc1O | active: -62.4%
CCOc1ccc(Cn2nnc(C(=O)Nc3cccc(SC)c3)c2N)cc1 | inactive: 26.4%
CC(=O)Nc1c(C)ccc(CNC(=O)COc2ccc(F)cc2)c1C | inconclusive: -43.3%
COc1ccc(N2CCN(C(=O)COC(=O)COc3cccc(C(F)(F)F)c3)CC2)cc1 | inconclusive: 0%
COc1ccc(SCC(=O)Nc2ccccc2Cl)cc1 | inconclusive: -46.3%
COc1cc([C@@H]2OC[C@@H]3[C@H]2CO[C@@H]3c2ccc3c(c2)OCO3)ccc1O | inactive: -15.4%
CCC1CCCCN1S(=O)(=O)c1ccc(NC(=O)c2cccs2)cc1 (stereo unspecified) | inactive: -35.6%

Structure (SMILES) | activity change, negative = inhibition
CC(C)(C)OC(=O)NCc1ccc(CNC(=O)c2nc[nH]c2C(=O)NCc2ccc(CNC(=O)OC(C)(C)C)cc2)cc1 | inconclusive: -53.1%
Oc1c(CN2CCN(c3ccc(F)cc3)CC2)cc(Cl)c2cccnc12 | active: -102%
COc1cccc(-n2ccnc2SCC(=O)Nc2nccs2)c1 | inactive: 28.8%
COc1cc(/C=C2/CCC/C(=C\c3cc(O)c(OC)c(Cl)c3)C2=O)cc(Cl)c1O | active: -100%
CC[C@@]1(C(=O)OC)N[C@H](CN(C)C(=O)COc2ccccc2)[C@@H]2C(=O)N(C)C(=O)[C@@H]21 | inactive: -12.7%
CN1CCCC(OC(=O)c2ccc3c(c2)OCCO3)C1 (stereo unspecified) | inactive: 82.9%
CCn1c(NC(=O)/C=C/c2ccc(F)cc2)nc2ccccc21 | inconclusive: -55.3%
Cc1[nH][nH]c(=O)c1C(c1ccc(-c2ccc(C(=O)O)cc2)o1)c1c(C)[nH][nH]c1=O | active: -61.8%
CCN(CC)S(=O)(=O)c1ccc(N2CCOCC2)c(NC(=O)COc2ccc(Cl)cc2)c1 | inconclusive: -46.3%
CN(C)c1ccc(C(=S)N2CCCCC2)cc1Br | inconclusive: -56.5%
CNC(=O)Oc1ccc2c(c1)C(=O)c1ccccc1CO2 | inconclusive: -53.4%
COc1cccc(NC(=O)CSc2nc3ccccc3c(=O)n2CCCC(=O)NCCCN2CCOCC2)c1 | inconclusive: -42.9%
O=C(NCc1ccccc1Br)c1cnc2sc(N3CCCCCC3)nn2c1=O | inconclusive: -41.5%
NCCc1ccccc1 | inactive: -11.8%
NC(=S)Nc1ccc(Cl)c(Cl)c1 | active: -60.1%
COc1cccc(Cn2nnc3c(=O)[nH]c(C4CCN(C(=O)c5ccccc5Cl)CC4)nc32)c1 | inactive: -15.6%
COc1cc(/C=N/NC2=NS(=O)(=O)c3ccccc32)cc(OC)c1OC | inconclusive: -52.2%
CCOC(=O)c1sc2nc(N3CCOCC3)c3c(c2c1N)CC(C(C)C)OC3 (stereo unspecified) | inconclusive: -45.6%
O=C(CC1CCCC1)N1CCN(S(=O)(=O)c2c(F)cccc2F)CC1 | inconclusive: -54.6%
COc1ccccc1C1/C(=C(/O)c2cnn(-c3ccccc3)c2C)C(=O)C(=O)N1CCN(C)C (stereo unspecified) | inconclusive: -43.7%
CN(C(=O)COc1ccc2ccc(=O)oc2c1)C1CCS(=O)(=O)C1 (stereo unspecified) | inconclusive: -40.9%
FC(F)(F)C(F)(F)c1nc2nc(Cl)c(Cl)nc2[nH]1 | inconclusive: -59.3%

Part of the list above in another layout:
Structure (SMILES)	activity change, negative = inhibition
O=C(O)c1ccc(NC2=C(Cl)C(=O)c3ccccc3C2=O)cc1	inconclusive: -41.8%
COC(=O)/C(=N\OCc1ccc(C#N)cc1)c1c(C)nn(C)c1C	active: -100%
COc1ccc(S(N)(=O)=O)cc1C(=O)N1CCCC1	inconclusive: -41.7%
COc1ccc(N(CC(=O)NCc2cccs2)S(=O)(=O)c2ccc(C(C)=O)cc2)cc1	inconclusive: -45.7%
O=C(O)C1Nc2c(O)cc(Cl)c([N+](=O)[O-])c2C2C=CCC12 (stereo unspecified)	inconclusive: -44.5%
COc1ccc(C(C#N)=C2C=CC(=NO)c3ccccc32)cc1	active: -90.8%
Cc1nn(-c2ccc(F)cc2)c(-n2cccc2)c1C(=O)N1CCN(c2ccccc2)CC1	inconclusive: -57.3%
CCOc1ccc(Cn2nnc(C(=O)Nc3cccc(SC)c3)c2N)cc1	inactive: 26.4%
CC(=O)Nc1c(C)ccc(CNC(=O)COc2ccc(F)cc2)c1C	inconclusive: -43.3%
COc1ccc(N2CCN(C(=O)COC(=O)COc3cccc(C(F)(F)F)c3)CC2)cc1	inconclusive: 0%
COc1cc([C@@H]2OC[C@@H]3[C@H]2CO[C@@H]3c2ccc3c(c2)OCO3)ccc1O	inactive: -15.4%
CC(C)(C)OC(=O)NCc1ccc(CNC(=O)c2nc[nH]c2C(=O)NCc2ccc(CNC(=O)OC(C)(C)C)cc2)cc1	inconclusive: -53.1%
COc1cc(/C=C2/CCC/C(=C\c3cc(O)c(OC)c(Cl)c3)C2=O)cc(Cl)c1O	active: -100%
CN1CCCC(OC(=O)c2ccc3c(c2)OCCO3)C1 (stereo unspecified)	inactive: 82.9%
CCn1c(NC(=O)/C=C/c2ccc(F)cc2)nc2ccccc21	inconclusive: -55.3%
CCN(CC)S(=O)(=O)c1ccc(N2CCOCC2)c(NC(=O)COc2ccc(Cl)cc2)c1	inconclusive: -46.3%
CNC(=O)Oc1ccc2c(c1)C(=O)c1ccccc1CO2	inconclusive: -53.4%
COc1cccc(NC(=O)CSc2nc3ccccc3c(=O)n2CCCC(=O)NCCCN2CCOCC2)c1	inconclusive: -42.9%
O=C(NCc1ccccc1Br)c1cnc2sc(N3CCCCCC3)nn2c1=O	inconclusive: -41.5%
NCCc1ccccc1	inactive: -11.8%
COc1cc(/C=N/NC2=NS(=O)(=O)c3ccccc32)cc(OC)c1OC	inconclusive: -52.2%
COc1ccccc1C1/C(=C(/O)c2cnn(-c3ccccc3)c2C)C(=O)C(=O)N1CCN(C)C (stereo unspecified)	inconclusive: -43.7%
FC(F)(F)C(F)(F)c1nc2nc(Cl)c(Cl)nc2[nH]1	inconclusive: -59.3%

Next part:

Structure (SMILES) | activity change, negative = inhibition
CCN(C(=O)c1cc2c(s1)-c1ccccc1S(=O)(=O)C2)c1cc(OC)ccc1OC | inactive: 0.597%
Cc1cn2c(=O)cc(COC(=O)c3cccc(NC(=O)c4ccccc4Cl)c3)nc2s1 | inconclusive: -43.1%
COc1ccc(NC(=O)CC2C(=O)N(c3cccc(C)c3)C(=O)N2Cc2cccnc2)cc1 (stereo unspecified) | inconclusive: -46.3%
O=c1[nH]c2ccccc2nc1-c1cccs1 | inactive: 25.4%
COc1ccccc1OCC(=O)Nc1nc2c(s1)CCCC2 | active: -66.9%
CCC(CC)c1nn2c(=O)cc(COc3ccc(NC(=O)c4ccc(C)cc4)cc3)nc2s1 | inactive: 2.75%
Cc1c(C(=O)Nc2ccc(C(C)C)cc2)sc2nc3n(c(=O)c12)CCC3 | inconclusive: -49.6%
COC(=O)c1cc2sccc2n1Cc1nc(-c2ccc(OC)cc2)oc1C | active: -60.6%
CCC(CC)C(=O)c1c[nH]c(C(=O)N2CCN(c3ccc(OC)cc3)CC2)c1 | inconclusive: -54.2%
Cn1ncc([N+](=O)[O-])c1C(=O)N/N=C/c1cccc([N+](=O)[O-])c1 | inconclusive: -49.1%
Cc1ccn2cc(-c3ccc4c(c3)NC(=O)CO4)nc2c1 | active: -83.9%
Cc1ccc(C)c(N2CCN(S(=O)(=O)c3ccc4c(c3)NC(=O)CS4)CC2)c1 | inconclusive: -58.3%
CC(C)C(NS(=O)(=O)c1ccc2c(c1)oc(=O)n2C)C(=O)NCCc1ccccc1 (stereo unspecified) | inactive: 8.56%
Cc1nnc2c3ccccc3c(-c3ccccc3)nn12 | active: -66.4%
COCCCNc1nc(NCc2cccc(Cl)c2)c2cnn(C)c2n1 | inconclusive: -40.9%
CC(CCc1ccccc1)NC(=O)[C@@H]1Cc2ccccc2CN1 (stereo partly specified) | inconclusive: -42.5%
Cc1ccccc1CSc1nnc(-c2ccncc2)n1C | inconclusive: -45.4%
CSc1ccc(CCNC(=O)C2CCCN(c3nn4c(=O)cc(C)nc4s3)C2)cc1 (stereo unspecified) | inconclusive: -45.5%
COc1cc2c(cc1O)C(Cc1ccc(O)cc1)NCC2 (stereo unspecified) | inactive: -10.6%
Cn1c(=O)n(C)c2cc(C(=O)O)ccc21 | inconclusive: -40.6%
Cc1cc(C)cc(NC(=O)c2cc3c(=O)n4ccccc4nc3s2)c1 | inconclusive: -45.1%
Cc1ccc(-c2nn3nnnc3c3ccccc23)cc1 | inconclusive: -43%

Structure (SMILES) | activity change, negative = inhibition
O=S1(=O)C[C@H](N2CCOCC2)[C@@H](COCc2ccccc2)N1 | inactive: -8.28%
CCN(CC)S(=O)(=O)c1ccc(N2CCN(c3cccc(OC)c3)CC2)c([N+](=O)[O-])c1 | inconclusive: -48.3%
O=C(CN1CCCCCCC1)Nc1cccc(Cl)c1Cl | active: -65.4%
CN(Cc1ccc(F)cc1)C(=O)c1cccc(NS(=O)(=O)c2ccccc2)c1 | inconclusive: -43.2%
COc1ccc(N2C(=O)c3ccccc3NC23C(=O)N(C)c2ccccc23)cc1 (stereo unspecified) | inactive: 18.6%
COc1ccc(NC(=O)CN2C(=O)COc3ccc(S(=O)(=O)N4CCCCCC4)cc32)cc1 | inconclusive: -40.4%
CC(C)(C)n1nnnc1C(CCc1ccccc1)N1CCC(n2c(=O)[nH]c3ccccc32)CC1 (stereo unspecified) | active: -99.1%
COc1ccc(-c2nc3cc(C)c(Br)c(C)n3c2Cc2ccc(C)cc2)cc1OC | inactive: 2.75%
Cc1cc(OCCn2nc(C(=O)O)c3ccccc3c2=O)ccc1C(C)C | inconclusive: -53.3%
COC(=O)c1c(C)nc2nonc2c1N | inactive: -32.5%
CC(C)(CC(=O)N1CCN(c2ccc(Cl)cc2)CC1)CC1=NS(=O)(=O)c2ccccc2N1 | inconclusive: -56.2%
O=C(NCCSc1c(-c2ccccc2)[nH]c2ccccc12)c1cc2ccccc2oc1=O | inactive: -8.33%
Cn1nnnc1SCCCNCc1cc(Cl)ccc1OCc1ccc(F)cc1 | inconclusive: -46.7%
Nc1c(C(=O)Nc2ccc(OC(F)(F)F)cc2)sc2nc(-c3ccncc3)ccc12 | inconclusive: -56.6%
c1ccc2cc(CSCc3nc4ccccc4[nH]3)ccc2c1 | inconclusive: -45.9%
Cc1cc(C)c(NC(=O)c2ccc3nccnc3c2)c(C)c1 | active: -71.6%
O=C1CC(NS(=O)(=O)c2cccnc2)CN1c1cccc(F)c1 (stereo unspecified) | inconclusive: -41.4%
O=C1NC[C@H](Cc2ccccc2)N(C[C@@H]2CCCN2C[C@H](Cc2ccc(O)cc2)N2C[C@H](Cc3ccccc3)N(CCc3ccccc3)C(=O)C2=O)C1=O | inconclusive: -42.7%
CCN1/C(=C/C(C)=C/c2sc3ccccc3[n+]2CC)Sc2ccccc21 | active: -99.6% and active: -99.9%
O=C(Nc1ccc(S(=O)(=O)NCCc2ccccc2)cc1)c1ccc(Br)o1 | inconclusive: -58.6%
